The source of these data is publication PMC12153694.

By UniProt entry, the sequences of proteins in these tests, tags left out. Residues count along the entry.
UniProt P14735, residues 42-1019: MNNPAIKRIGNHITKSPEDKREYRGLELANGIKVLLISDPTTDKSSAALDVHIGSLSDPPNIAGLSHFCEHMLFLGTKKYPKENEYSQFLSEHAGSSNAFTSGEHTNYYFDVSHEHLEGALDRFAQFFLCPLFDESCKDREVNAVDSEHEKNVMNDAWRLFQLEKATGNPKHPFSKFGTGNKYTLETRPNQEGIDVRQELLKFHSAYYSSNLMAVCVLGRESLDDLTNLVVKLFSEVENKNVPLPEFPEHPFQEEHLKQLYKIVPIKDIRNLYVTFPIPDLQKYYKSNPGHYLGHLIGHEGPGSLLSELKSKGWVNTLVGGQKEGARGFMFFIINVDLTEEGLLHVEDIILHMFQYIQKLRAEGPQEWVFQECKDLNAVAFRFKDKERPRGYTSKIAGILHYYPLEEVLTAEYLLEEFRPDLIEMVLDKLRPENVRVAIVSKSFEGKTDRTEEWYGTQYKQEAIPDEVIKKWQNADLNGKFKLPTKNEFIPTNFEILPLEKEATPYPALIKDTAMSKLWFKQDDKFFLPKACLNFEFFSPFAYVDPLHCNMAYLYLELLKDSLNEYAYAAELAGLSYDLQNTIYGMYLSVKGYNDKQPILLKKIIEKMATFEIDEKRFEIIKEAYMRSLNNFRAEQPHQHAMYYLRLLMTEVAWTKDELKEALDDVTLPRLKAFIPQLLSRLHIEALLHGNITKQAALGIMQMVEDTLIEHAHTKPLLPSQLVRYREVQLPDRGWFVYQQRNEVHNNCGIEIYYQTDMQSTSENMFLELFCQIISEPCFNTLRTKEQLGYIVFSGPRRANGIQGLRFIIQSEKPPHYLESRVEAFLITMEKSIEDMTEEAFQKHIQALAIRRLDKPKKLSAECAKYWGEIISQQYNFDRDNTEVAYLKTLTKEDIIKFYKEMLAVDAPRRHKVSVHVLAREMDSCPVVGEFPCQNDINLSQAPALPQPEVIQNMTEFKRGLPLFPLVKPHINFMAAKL
UniProt A5YKK6: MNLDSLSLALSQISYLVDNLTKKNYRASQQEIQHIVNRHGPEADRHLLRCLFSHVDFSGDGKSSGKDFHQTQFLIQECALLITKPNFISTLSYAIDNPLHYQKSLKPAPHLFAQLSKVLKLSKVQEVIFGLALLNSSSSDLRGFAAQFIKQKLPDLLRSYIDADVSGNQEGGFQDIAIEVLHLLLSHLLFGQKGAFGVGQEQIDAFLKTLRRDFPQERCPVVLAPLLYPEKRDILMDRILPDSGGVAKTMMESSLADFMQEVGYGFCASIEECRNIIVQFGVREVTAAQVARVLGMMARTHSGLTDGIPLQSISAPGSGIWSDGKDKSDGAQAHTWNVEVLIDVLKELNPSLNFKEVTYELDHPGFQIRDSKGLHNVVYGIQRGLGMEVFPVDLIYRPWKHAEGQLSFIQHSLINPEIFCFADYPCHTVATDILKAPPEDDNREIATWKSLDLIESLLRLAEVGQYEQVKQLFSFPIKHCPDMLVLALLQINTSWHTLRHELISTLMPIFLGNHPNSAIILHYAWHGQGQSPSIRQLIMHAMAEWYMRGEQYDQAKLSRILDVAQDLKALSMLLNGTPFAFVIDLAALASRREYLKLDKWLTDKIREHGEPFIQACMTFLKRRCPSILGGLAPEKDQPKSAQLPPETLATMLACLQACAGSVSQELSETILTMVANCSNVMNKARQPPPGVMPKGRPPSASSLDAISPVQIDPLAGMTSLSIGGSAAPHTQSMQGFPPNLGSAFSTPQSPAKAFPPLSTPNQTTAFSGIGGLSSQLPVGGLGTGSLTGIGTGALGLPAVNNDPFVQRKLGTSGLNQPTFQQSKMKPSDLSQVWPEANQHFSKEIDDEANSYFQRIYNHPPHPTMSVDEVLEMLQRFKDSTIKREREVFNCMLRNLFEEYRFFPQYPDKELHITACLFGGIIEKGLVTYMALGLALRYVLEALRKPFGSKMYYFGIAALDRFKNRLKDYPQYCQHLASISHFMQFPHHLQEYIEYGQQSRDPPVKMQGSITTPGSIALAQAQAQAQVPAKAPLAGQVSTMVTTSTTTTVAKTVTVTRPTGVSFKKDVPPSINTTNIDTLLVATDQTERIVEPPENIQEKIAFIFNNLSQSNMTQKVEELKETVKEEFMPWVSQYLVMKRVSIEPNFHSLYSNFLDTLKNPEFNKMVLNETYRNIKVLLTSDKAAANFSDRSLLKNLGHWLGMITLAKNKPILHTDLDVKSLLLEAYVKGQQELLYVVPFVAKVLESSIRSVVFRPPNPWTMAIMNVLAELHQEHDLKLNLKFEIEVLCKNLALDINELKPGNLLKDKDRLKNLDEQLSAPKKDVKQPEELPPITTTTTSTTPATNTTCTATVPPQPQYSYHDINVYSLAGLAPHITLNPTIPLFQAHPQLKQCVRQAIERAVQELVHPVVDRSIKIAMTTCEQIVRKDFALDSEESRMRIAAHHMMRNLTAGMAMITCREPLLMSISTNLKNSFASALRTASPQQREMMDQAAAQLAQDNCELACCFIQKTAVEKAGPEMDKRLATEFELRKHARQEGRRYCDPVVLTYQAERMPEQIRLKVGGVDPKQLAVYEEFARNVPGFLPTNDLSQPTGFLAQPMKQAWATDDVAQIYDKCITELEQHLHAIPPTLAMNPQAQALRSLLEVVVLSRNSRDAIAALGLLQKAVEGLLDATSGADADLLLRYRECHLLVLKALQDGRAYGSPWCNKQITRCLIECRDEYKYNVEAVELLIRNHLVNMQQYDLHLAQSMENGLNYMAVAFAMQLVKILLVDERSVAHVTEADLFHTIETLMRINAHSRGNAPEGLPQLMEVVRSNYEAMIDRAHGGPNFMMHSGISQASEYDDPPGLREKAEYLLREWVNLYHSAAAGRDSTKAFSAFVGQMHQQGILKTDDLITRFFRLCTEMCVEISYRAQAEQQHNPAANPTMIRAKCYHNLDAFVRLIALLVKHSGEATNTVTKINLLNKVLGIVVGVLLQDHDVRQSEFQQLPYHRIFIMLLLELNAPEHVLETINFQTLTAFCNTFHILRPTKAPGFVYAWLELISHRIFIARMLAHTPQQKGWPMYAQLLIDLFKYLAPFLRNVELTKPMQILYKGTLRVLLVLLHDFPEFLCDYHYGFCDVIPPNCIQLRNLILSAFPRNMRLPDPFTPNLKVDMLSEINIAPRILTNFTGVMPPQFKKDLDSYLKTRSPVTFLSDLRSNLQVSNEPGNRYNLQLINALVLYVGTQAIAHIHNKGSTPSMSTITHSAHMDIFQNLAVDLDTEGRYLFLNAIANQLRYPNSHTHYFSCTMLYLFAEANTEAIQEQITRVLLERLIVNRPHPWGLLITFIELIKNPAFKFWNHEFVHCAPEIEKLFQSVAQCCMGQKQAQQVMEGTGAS

No constants are given. Whether binding was seen depends on the method and setting. In cells and extracts the contact can be indirect. These calls come from enrichment with a bait or labelling near it, and not all partners need be listed. No binding means not detected with the bait.

The test addresses cytoplasmic form of human IDE fused with V5tagTurboID (human) (UniProt P14735). The experiment in a line: proximity labelling; TurboID fused to cytosolic IDE in HEK293 cells, 10 min with 50 uM biotin; biotinylated proteins purified on streptavidin magnetic beads and identified by nanoLC-MS/MS; compared with Cyto-TurboID cells plus biotin and Cyto-IDE cells without biotin; four replicates.

As for “CNOT1, scaffold subunit of CCR4-NOT (from UniProt A5YKK6 1-2376)”, the binding result was “no binding”.
